# Measurements from PubChem BioAssay AID1053191 (Broad Institute, 2014).
# The inconclusive results got no clear call from the source; some entries with a clear call stand among them for comparison. Calls of active or inactive are those of the source.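 Rule for the calls: active = compounds whose fitted half-maximal potency for killing cells lies within twice their highest tested dose; inconclusive = flat curve with 30 to 70% signal loss, or poor fit; inactive = the rest.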
# Assay: cytotoxicity in HEK293 cells, dose response, cytotoxicity control, cell-based, dry powder samples (AID 1053191)
# Settings: HEK293T viability, ATP luminescence, 72 h; at 50 µM (top of the series)
row,SMILES,"activity change, negative = cytotoxic"
1,Cc1cc2cc(CNC(=O)Nc3cccc(Cl)c3)ccc2n1C,inconclusive: -33.8%
2,CCc1ccc(-n2c(=S)sc3c(=O)n(-c4ccccc4C)c(SCC(=O)O)nc32)cc1,inactive: 12.6%
